Measurements reported in PubChem BioAssay AID1224829 (NIAID, 2016)
Purpose: 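Secondary check of hits that alter LPS-induced p65 translocation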 (follow-up of hits). Cells: mouse RAW264.7 G9 macrophage reporter cells. Knock-down reagent: single siRNA against mouse genes, 100 nM. Time to read-out: 2 days of siRNA knock-down, then 40 min of LPS before fixing. Challenge: LPS (Salmonella minnesota R595) at 10 ng/ml. Read-out: 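High-content images after 40 min LPS exposure; GFP-p65 nucleus to surrounding ring signal ratio, normalised to plate median and non-targeting control wells, expressed as z-score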. Direction: p65 translocation z-score: higher = more nuclear NF-kappaB p65 after LPS. Hit rule: 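An siRNA is called active when the mean z-score of its two replicates is above 2 or below -2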. Meaning of the calls: active = changed p65 translocation (either direction); inactive = no clear change.
This is a random part of about 3,800 reagents. 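Calls cover raised and lowered translocation; gene median uses one vendor's three siRNAs; qiagen siRNAs acted more weakly than ambion siRNAs.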 Reagents against one gene are numbered here. Further read-outs or replicates are left out here.

Target gene | siRNA no. | siRNA vendor or control pool | p65 translocation z-score, replicate mean | p65 translocation z-score, replicate 1 | call
Psmb7 (proteasome (prosome, macropain) subunit, beta type 7) | 1 | ambion single siRNA | 0.0349 | 0.995 | inactive
Psmb7 (proteasome (prosome, macropain) subunit, beta type 7) | 2 | ambion single siRNA | -0.116 | -1.4 | inactive
Psmb7 (proteasome (prosome, macropain) subunit, beta type 7) | 3 | ambion single siRNA | 0.259 | 0.405 | inactive
Ren2 (renin 2 tandem duplication of Ren1) | 1 | ambion single siRNA | 3.59 | 4.29 | active
Ren2 (renin 2 tandem duplication of Ren1) | 2 | ambion single siRNA | -2.86 | -2.47 | active
Ren2 (renin 2 tandem duplication of Ren1) | 3 | ambion single siRNA | -2.45 | -1.36 | active
Ren2 (renin 2 tandem duplication of Ren1) | 4 | qiagen single siRNA | 0.813 | -0.557 | inactive
Ren2 (renin 2 tandem duplication of Ren1) | 5 | qiagen single siRNA | 0.307 | 1.34 | inactive
Ren2 (renin 2 tandem duplication of Ren1) | 6 | qiagen single siRNA | 0.818 | -0.69 | inactive
Tnfaip1 (tumor necrosis factor, alpha-induced protein 1 (endothelial)) | 1 | ambion single siRNA | -3.71 | -2.02 | active
Tnfaip1 (tumor necrosis factor, alpha-induced protein 1 (endothelial)) | 2 | ambion single siRNA | -0.624 | -0.624 | inactive
Tnfaip1 (tumor necrosis factor, alpha-induced protein 1 (endothelial)) | 3 | ambion single siRNA | -8.55 | -9.71 | active
Tnfaip1 (tumor necrosis factor, alpha-induced protein 1 (endothelial)) | 4 | qiagen single siRNA | -1.5 | -0.888 | inactive
Tnfaip1 (tumor necrosis factor, alpha-induced protein 1 (endothelial)) | 5 | qiagen single siRNA | 1.11 | -0.41 | inactive
Tnfaip1 (tumor necrosis factor, alpha-induced protein 1 (endothelial)) | 6 | qiagen single siRNA | 0.5 | 1.29 | inactive
Ifi204 (interferon activated gene 204) | 1 | ambion single siRNA | 0.0138 | 0.212 | inactive
Ifi204 (interferon activated gene 204) | 2 | ambion single siRNA | -3.09 | -4.18 | active
Ifi204 (interferon activated gene 204) | 3 | ambion single siRNA | -1.72 | -2.45 | inactive
Ifi204 (interferon activated gene 204) | 4 | qiagen single siRNA | 0.726 | -0.906 | inactive
Ifi204 (interferon activated gene 204) | 5 | qiagen single siRNA | 2.2 | -0.315 | active
Ifi204 (interferon activated gene 204) | 6 | qiagen single siRNA | -1.74 | -1.74 | inactive
